# Results from PubChem BioAssay (EPA / NIEHS).
# The chains behind the UniProt entries cited, without tags or fusion partners. Where a name states a change or a piece, a line headed by the entry shows the natural chain unless it says otherwise.
# UniProt Q14994: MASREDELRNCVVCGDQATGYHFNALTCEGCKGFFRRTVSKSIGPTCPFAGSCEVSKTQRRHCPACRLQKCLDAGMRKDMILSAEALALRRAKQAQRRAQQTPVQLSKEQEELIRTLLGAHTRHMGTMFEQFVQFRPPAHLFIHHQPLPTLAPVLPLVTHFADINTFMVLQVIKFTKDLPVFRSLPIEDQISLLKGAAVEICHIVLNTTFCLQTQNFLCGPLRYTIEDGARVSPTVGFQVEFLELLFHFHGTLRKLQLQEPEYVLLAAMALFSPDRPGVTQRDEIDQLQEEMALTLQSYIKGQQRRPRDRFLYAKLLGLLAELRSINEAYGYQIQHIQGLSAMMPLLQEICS
# UniProt P49884, whole entry, looked up: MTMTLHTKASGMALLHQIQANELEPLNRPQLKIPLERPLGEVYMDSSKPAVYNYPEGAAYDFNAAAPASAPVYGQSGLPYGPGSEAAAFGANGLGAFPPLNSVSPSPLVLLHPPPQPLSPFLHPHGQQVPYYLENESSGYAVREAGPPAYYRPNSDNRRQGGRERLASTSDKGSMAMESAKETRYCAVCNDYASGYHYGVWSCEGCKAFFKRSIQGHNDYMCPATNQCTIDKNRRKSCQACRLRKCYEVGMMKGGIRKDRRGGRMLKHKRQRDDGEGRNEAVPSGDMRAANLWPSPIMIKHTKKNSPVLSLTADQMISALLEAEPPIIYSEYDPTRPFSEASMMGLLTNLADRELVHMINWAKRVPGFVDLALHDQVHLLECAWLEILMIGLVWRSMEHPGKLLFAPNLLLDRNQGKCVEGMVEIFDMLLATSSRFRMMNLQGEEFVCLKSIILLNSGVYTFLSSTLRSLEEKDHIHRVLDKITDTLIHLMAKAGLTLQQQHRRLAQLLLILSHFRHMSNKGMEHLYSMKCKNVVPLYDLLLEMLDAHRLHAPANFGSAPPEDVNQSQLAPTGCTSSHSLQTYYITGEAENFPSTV
# UniProt Q96RI1: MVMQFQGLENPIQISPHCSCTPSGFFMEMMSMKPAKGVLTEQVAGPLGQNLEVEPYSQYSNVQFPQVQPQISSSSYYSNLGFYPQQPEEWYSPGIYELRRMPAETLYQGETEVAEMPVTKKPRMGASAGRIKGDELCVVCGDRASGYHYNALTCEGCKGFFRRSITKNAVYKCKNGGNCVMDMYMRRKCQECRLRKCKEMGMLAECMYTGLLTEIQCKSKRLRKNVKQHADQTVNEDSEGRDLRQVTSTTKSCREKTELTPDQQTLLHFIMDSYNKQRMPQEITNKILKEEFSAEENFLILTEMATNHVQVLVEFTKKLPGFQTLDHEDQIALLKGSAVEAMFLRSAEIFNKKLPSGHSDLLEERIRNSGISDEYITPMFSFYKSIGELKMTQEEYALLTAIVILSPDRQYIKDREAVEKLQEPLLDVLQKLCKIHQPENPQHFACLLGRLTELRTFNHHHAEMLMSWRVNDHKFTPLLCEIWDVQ
# “And” between values parts separate entries of the source, which are not always exact repeats. Equal values may be shown once. The shares of active, inactive and inconclusive entries below differ from those in the screen. Potencies of inconclusive entries are doubtful fits and often do not repeat. The source holds several records for some structures; these can differ, active in one and inactive in another. The source made the active and inactive calls. How the source made its calls: active means hit-call score of the fitted dose curve at least 0.9, where 1 is the maximum; inconclusive means response in the unintended direction; inactive means score below 0.9.
# Molecular target: human Constitutive Androstane Receptor (CAR), NR1I3 (gene 9970) (UniProt Q14994)
# Test: NVS_NR_hCAR_Antagonist: NovaScreen (NVS) Nuclear Receptor Binding Assay for human Constitutive Androstane Receptor Antagonism (CAR) (AID 2283344)
# Summary of the method: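 Cell-free TR-FRET binding read 1 h after dosing, antagonist mode; loss of signal versus DMSO baseline. Primary screen in duplicate at a single 25 uM; actives retested in concentration series.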
SMILES,outcome,AC50
CN(C)C(=O)C1(N2CCCCC2)CCN(CC[C@@]2(c3ccc(Cl)c(Cl)c3)CN(C(=O)c3ccccc3)CCO2)CC1,inactive,–
O=C(Nc1ccc(Cl)cc1)Nc1ccc(Cl)c(Cl)c1,–,inconclusive: 25 µM
COc1ccc(OC(F)(F)F)cc1CN[C@H]1CCCN[C@H]1c1ccccc1,inactive,–
CCC(=C(c1ccc(O)cc1)c1ccc(OCCN(C)C)cc1)c1ccccc1,–,active: 18.2 µM
CC(C)OC(=O)C(C)(C)Oc1ccc(C(=O)c2ccc(Cl)cc2)cc1,–,inconclusive: 25 µM
CCCCCCCCCCCCCCCCOS(=O)(=O)O,inactive,–

# Molecular target: bovine Estrogen Receptor (ER), ESR1 (gene 407238) (UniProt P49884)
# Test: NVS_NR_bER: NovaScreen (NVS) Nuclear Receptor Binding Assay for bovine Estrogen Receptor (ER) (AID 2283345);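 further: actives lower the bound radioligand count which means they displace the ER ligand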
# Summary of the method: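 Cell-free radioligand binding with receptor from bovine uterine membranes, read by scintillation counting 18 h after dosing. Loss of specific binding was scored against DMSO; primary screen at 25 uM in duplicate, actives then run as concentration series.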
SMILES,AC50,outcome
Cc1cc(Cc2cc(C)cc(C(C)(C)C)c2O)c(O)c(C(C)(C)C)c1,inconclusive: 25 µM,–
Cc1cc(CCN2CCN(c3nsc4ccccc34)CC2)cc2c1NC(=O)CC2(C)C,–,inactive
O=C(O)c1ccccc1,inconclusive: 0.061 µM,–
O=C(O)Cc1ccccc1Nc1c(Cl)cccc1Cl,–,inactive
CN(C)C(=O)C1(N2CCCCC2)CCN(CC[C@@]2(c3ccc(Cl)c(Cl)c3)CN(C(=O)c3ccccc3)CCO2)CC1,inconclusive: 11 µM,–
CC(C)C1=CC2=CC[C@@H]3[C@](C)(CCC[C@@]3(C)C(=O)O)[C@H]2CC1,inconclusive: 3.94 µM,–
CCc1ccccc1O,–,inactive
CC(C)CCCCCCc1ccc(O)cc1,active: 16.7 µM [middle of 4 runs],–
COC(=O)c1ccc(O)cc1,–,inactive
Oc1ccc(-c2ccccc2)c(Cl)c1,–,inactive
O=Nc1ccc(Nc2ccccc2)cc1,–,inactive
O=c1c(O)c(-c2ccc(O)c(O)c2)oc2cc(O)cc(O)c12,inconclusive: 0.0796 µM,–
CCCCCOC(=O)COc1cc(N2C(=O)C3=C(CCCC3)C2=O)c(F)cc1Cl,inconclusive: 0.12 µM,–
C[C@]12CC[C@H]3C(=CCc4cc(O)ccc43)[C@@H]1CCC2=O,active: 0.0129 µM,–
CC(C)c1ccc(O)c(C(C)C)c1,–,inactive
COc1ccc(-c2coc3cc(O)cc(O)c3c2=O)cc1,active: 14.6 µM,–
CC#C[C@]1(O)CC[C@H]2[C@@H]3CCC4=CC(=O)CCC4=C3[C@@H](c3ccc(N(C)C)cc3)C[C@@]21C,active: 10 µM and active: 16.2 µM and active: 8.77 µM,–
CCOCC(C)O (stereo not given),–,inactive
N=C1C=CC(=C(c2ccc(N)cc2)c2ccc(N)cc2)C=C1,inconclusive: 0.45 µM,–
CCNc1cccc(C)c1,inconclusive: 8.21 µM,–
NC(=O)c1nc(-c2cccc(-c3cc(F)ccc3OCC(F)(F)C(F)(F)F)c2)n[nH]1,inconclusive: 47.5 µM,–
COc1cccc(-c2ccc(/C=C\CN3CCCCCC3)cc2Cl)c1,–,inactive
CCOC(=O)C(C)Oc1ccc(Oc2cnc3cc(Cl)ccc3n2)cc1 (stereo not given),–,inactive
CSc1ccc(Oc2ccc(S(N)(=O)=O)cc2CN(C)C)cc1C,inconclusive: 10.8 µM,–
N[C@@H](Cc1cc(I)c(Oc2ccc(O)c(I)c2)c(I)c1)C(=O)O,–,inactive
CC(C)OC(=O)C(C)(C)Oc1ccc(C(=O)c2ccc(Cl)cc2)cc1,inconclusive: 25 µM,–
CCCc1cc(=O)[nH]c(=S)[nH]1,active: 25 µM,–
C[C@]12C=CC(=O)C=C1CC[C@@H]1[C@@H]2C(=O)C[C@@]2(C)[C@H]1CC[C@]2(O)C(=O)CO,inconclusive: 4.96 µM,–
O=C(O)CCCC[C@@H]1SC[C@@H]2NC(=O)N[C@@H]21,inconclusive: 6.63 µM,–
O=CCCCC=O,–,inactive

# Full records from above:
# Cc1cc(CCN2CCN(c3nsc4ccccc34)CC2)cc2c1NC(=O)CC2(C)C reads outcome: inactive
# C[C@]12C=CC(=O)C=C1CC[C@@H]1[C@@H]2C(=O)C[C@@]2(C)[C@H]1CC[C@]2(O)C(=O)CO reads AC50: inconclusive: 4.96 µM
# O=C(O)c1ccccc1 reads AC50: inconclusive: 0.061 µM

# Molecular target: Bile acid receptor (Homo sapiens) (UniProt Q96RI1)
# Test: NVS_NR_hFXR_Antagonist: NovaScreen (NVS) Nuclear Receptor Binding Assay for human Farnesoid X Receptor Antagonism (FXR) (AID 2283350)
# Summary of the method: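 Cell-free TR-FRET ligand-binding read-out on human FXR (NR1H4) in antagonist mode, measured 1 h after dosing. Primary screen in duplicate at 25 uM, actives retested in concentration series; signal loss scored versus DMSO.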
SMILES,outcome,AC50
O=C(Nc1ccc(Cl)cc1)Nc1ccc(Cl)c(Cl)c1,inactive,–
COc1ccc(OC(F)(F)F)cc1CN[C@H]1CCCN[C@H]1c1ccccc1,–,active: 40.2 µM
CCC(=C(c1ccc(O)cc1)c1ccc(OCCN(C)C)cc1)c1ccccc1,inactive,–
CCCCCCCCCCCCCCCCOS(=O)(=O)O,–,inconclusive: 0.36 µM
